# Data from PubChem BioAssay AID624291 (National Center for Advancing Translational Sciences (NCATS), 2012).
# The campaign covered roughly 350,000 compounds. About 220 (0.063%) were called active. This list was built around the results that the source calls inconclusive (neither active nor inactive); the mix of calls is not that of the screen. The call rests on the fitted dose curve; in most records, active means well fitted activation curve with a large enough effect; inconclusive means small, poorly fitted or top-dose-only effect; inactive means no such curve, though single readings can be large or run the other way. Potencies of inconclusive entries are doubtful fits and often do not repeat.
# Assay: qHTS for Activators of Integrin-Mediated Alleviation for Muscular Dystrophy; further: nearly all actives have a fitted effect of over 60% in size
# Settings: alpha7betagal myoblasts, beta-gal FDG fluorescence, 48 h; series mostly up to 38.3 µM
# Summary of the method: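 Alpha7betagal+/- myoblasts (passage 13) were plated 16-24 hr, then exposed to compounds (1:260 dilution of DMSO stock) for 48 hours at 37C. After MPER lysis, β-galactosidase reporter activity was read as FDG fluorescence (ex 480/em 540) after 30 minutes.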
# Potency means the concentration at half of the fitted maximal effect.
row,SMILES,Potency
1,CCCc1cc(=O)c2ccc(OC/C(C)=N/O)cc2o1,"inconclusive: 28.2 µM [activator, single point]"
2,Cc1cc(C)n(/N=C/c2ccco2)c(=O)c1C#N,"inconclusive: 3.98 µM [activator, partial curve, poor fit]"
3,CC1CCCN(C(=O)CCNS(=O)(=O)c2ccc3c(c2)oc(=O)n3C)C1 (centres undefined),"inconclusive: 1.58 µM [activator, single point]"
4,O=[N+]([O-])c1ccc(CN2CC(N3CCN(CCO)CC3)CS2(=O)=O)cc1 (centres undefined),inactive
5,Cc1ccc(NC(=O)c2cccnc2C(=O)Nc2ccc(C)cc2)cc1,"inconclusive: 5.01 µM [activator, single point]"
6,O=C(Nc1ccc(Cl)c(S(=O)(=O)N2CCOCC2)c1)c1ccccn1,"inconclusive: 10 µM [activator, partial curve, poor fit]"
7,Cc1ccc(NC(=O)CCNC(=O)c2ccccc2)cc1F,"inconclusive: 28.2 µM [activator, single point]"
8,O=S(=O)(NCc1ccc2c(c1)OCO2)c1ccc(F)c(F)c1,"inconclusive: 5.01 µM [activator, single point]"
9,c1ccc2c(c1)CNc1ccccc1-2,"inconclusive: 0.891 µM [activator, partial curve, poor fit]"
10,O=C(/C=C/Nc1ccccc1C(F)(F)F)c1ccco1,"inconclusive: 11.2 µM [activator, single point]"
11,COc1ccc(Cc2nnc(CCc3ccccc3)s2)cc1,"inconclusive: 3.55 µM [activator, single point]"
12,O=C1CC2(CCCCC2)CC(=O)N1CCc1ccccc1,"inconclusive: 5.01 µM [activator, single point]"
13,Cc1c(C)c(C)c(S(=O)(=O)N2CCSCC2)c(C)c1C,"inconclusive: 5.01 µM [activator, single point]"
14,CCOc1ccc(N(CC(=O)Nc2ccc(C)cc2)S(=O)(=O)c2c(C)[nH]c(=O)[nH]c2=O)cc1,inactive
15,CC(C)c1nnc(NC(=O)CCC(=O)N2CCN(c3cccc(Cl)c3)CC2)s1,"inconclusive: 2 µM [activator, partial curve, poor fit]"
16,COc1ccc(CCNC(=O)C2CC(=O)N(c3ccc(Br)cc3)C2)cc1OC (centres undefined),"inconclusive: 28.2 µM [activator, single point]"
17,COCCN(C(=O)CCC(=O)Nc1nccs1)C(C(=O)NCCC(C)C)c1ccc(F)cc1 (centres undefined),"inconclusive: 5.01 µM [activator, single point]"
18,CCc1cc2c(SCC(=O)NCC3CCCO3)ncnc2s1 (centres undefined),"inconclusive: 22.4 µM [activator, single point]"
19,O=C(Nn1c(SCc2ccc([N+](=O)[O-])cc2)nc2ccccc2c1=O)c1ccc(F)cc1,"inconclusive: 12.6 µM [activator, partial curve, poor fit]"
20,Cc1ccc(N2C(=O)c3ccccc3C2Nc2ccc(S(=O)(=O)N3CCCCC3)cc2)nc1 (centres undefined),inactive
21,CC(C)NC(=O)CCc1nnc(Cc2cccc(C(F)(F)F)c2)o1,"inconclusive: 3.55 µM [activator, single point]"
22,COCCNS(=O)(=O)c1ccc(-c2ccc(Cl)cc2)cc1,"inconclusive: 3.98 µM [activator, full curve, poor fit]"
23,COC(=O)CC(c1ccc(F)cc1)n1c(C)ccc1C (centres undefined),inactive

row,SMILES,Potency
1,O=C(N/N=C/c1c(O)ccc2ccccc12)c1cccc(C(F)(F)F)c1,"inconclusive: 2.24 µM [activator, partial curve, poor fit]"
2,O=C(N/C(=C/c1cccnc1)C(=O)N1CCOCC1)c1ccccc1Cl,"inconclusive: 5.01 µM [activator, single point]"
3,CCc1n[nH]c(=S)n1N=C1CCC(C)CC1 (centres undefined),"inconclusive: 12.6 µM [activator, single point]"
4,O=C(NCc1ccco1)c1ccc2c(c1)C(=O)N(Cc1ccccc1)C2=O,inactive
5,Cn1c(-c2ccc(F)cc2)cnc1NCc1ccc(F)cc1F,"inconclusive: 3.16 µM [activator, single point]"
6,COC(=O)c1ccc(C2C(C(=O)c3cc4ccccc4o3)=C(O)C(=O)N2CCN2CCOCC2)cc1 (centres undefined),active: 10 µM
7,CCCCN1CNC(=S)N(CCc2ccccc2)C1,inactive
8,Cc1c(C(=O)C(=O)N2c3ccccc3CC2C)c2ccccc2n1C (centres undefined),inactive
9,CN(C)CCCN(C(=O)c1ccc(S(=O)(=O)N2CCCCCC2)cc1)c1nc2c(F)cccc2s1,inactive
10,O=C(Cc1ccccc1)Nc1ccc(NC(=O)c2ccccc2)nc1,"inconclusive: 1.58 µM [activator, partial curve, poor fit]"
11,CCOC(=O)C1C(c2ccccc2)N(C)OC1(O)C(F)(F)F (centres undefined),"inconclusive: 4.47 µM [activator, single point]"
12,Cc1cccc(NC(=O)c2sc(NC(=O)c3ccco3)c(C#N)c2C)c1C,"inconclusive: 14.1 µM [activator, single point]"
13,CCOC(=O)c1c(NC(=O)c2ccco2)n(C2CCCCC2)c2nc3ccccc3nc12,inactive
14,CC(C)Cc1nn2c(=O)cc(CSCC(=O)Nc3ccccc3F)nc2s1,inactive
15,Fc1ccc(-c2cc(-c3ccccc3)nc(-n3cccn3)n2)cc1,inactive
16,Cc1cc(C)c2cc(C(c3nnnn3C3CCCC3)N3CCOCC3)c(=O)[nH]c2c1 (centres undefined),"inconclusive: 5.01 µM [activator, single point]"
17,COCCCN(C(=O)c1cc2c(s1)CCCCC2)c1c(N)n(Cc2ccccc2)c(=O)[nH]c1=O,"inconclusive: 10 µM [activator, partial curve]"
18,Cc1ccc(/C=N/NC(=O)c2ccncc2)cc1,inactive
19,O=C(Nc1ccc(C(=O)N2CCOCC2)cc1)Nc1ccc(Cl)cc1Cl,"inconclusive: 5.01 µM [activator, single point]"
20,CCOC(=O)N1CCC(=C(C#N)C(=O)Nc2cc(OC)ccc2OC)CC1,inactive
21,COc1ccc(C(=O)Nc2nnc(S(=O)(=O)Cc3ccccc3)s2)cc1,"inconclusive: 2.24 µM [activator, partial curve, poor fit]"
22,Cc1cc(C)c(-n2[nH]nnc2=S)c(C)c1,"inconclusive: 3.98 µM [activator, single point]"
23,COc1ccc(NC(=O)CN(C)CC(=O)c2[nH]c(C)c(C(C)=O)c2C)cc1,inactive

row,SMILES,Potency
1,O=C(c1ccc(F)c(F)c1)N1CCC2(CC1)NCCc1[nH]cnc12,"inconclusive: 12.6 µM [activator, single point]"
2,CNc1nc(-c2ccc(OC)cc2)c(-c2ccc(OC)cc2)s1,"inconclusive: 12.6 µM [activator, partial curve, poor fit]"
3,CC1CCN(C(=O)CSc2nc(N)c(NC(=O)c3ccccc3)c(=O)[nH]2)CC1,inactive
4,COc1ccc(OC)c(/C=N/NC(=O)c2ccc(=O)[nH]n2)c1,"inconclusive: 2.82 µM [activator, single point]"
5,COc1ccc(S(=O)(=O)N2CCC(C(=O)NN3CCCCC3)CC2)cc1OC,"inconclusive: 12.6 µM [activator, single point]"
6,CCN(Cc1ccncc1)C(=O)CC1C(=O)NCCN1Cc1ccc(F)c(F)c1 (centres undefined),"inconclusive: 28.2 µM [activator, single point]"
7,Cc1ccc(CN(C)C(=O)c2ccc3c(c2)NC(=O)CS3)o1,"inconclusive: 1.41 µM [activator, partial curve, poor fit]"
8,CCNc1nc(NC(C)(C)C)nc(N2CCCCC2)n1,inactive
9,Cc1ccc(CN2CCN(CC(=O)NCc3ccccc3)CC2)cc1,inactive
10,O=C(CCN1CCC(c2ccc(Cl)s2)=N1)c1ccc(Cl)s1,"inconclusive: 2.82 µM [activator, single point]"
11,CN(CC(=O)Nc1cccc(F)c1)C(=O)c1cc([N+](=O)[O-])ccc1N1CCCCC1,"inconclusive: 3.55 µM [activator, partial curve, poor fit]"
12,CCOC(=O)c1c(-c2ccc(-c3ccccc3)cc2)csc1NC(=O)CCC(=O)O,"inconclusive: 10 µM [activator, partial curve, poor fit]"
13,Cc1onc(-c2ccccc2)c1C(=O)NCc1ccc(Cl)cc1,"inconclusive: 28.2 µM [activator, single point]"
14,Cc1ccc(NC(=O)c2ccccc2OCC(=O)Nc2ccccc2F)cc1S(=O)(=O)N(C)C,"inconclusive: 5.01 µM [activator, single point]"
15,COc1ccc(NC(=O)c2oc3ccccc3c2C)cn1,"inconclusive: 3.55 µM [activator, single point]"
16,COc1ccc(NC(=O)CCC(=O)N/N=C/c2ccncc2)cc1,"inconclusive: 10 µM [activator, single point]"
17,Cc1cc(OCCOc2cccc3cccnc23)cc(C)c1Cl,inactive
18,Cc1cc(NC(=O)c2cc(C(C)C)on2)no1,inactive
19,O=C(Nc1ccc(F)cc1)N1CCc2ccccc2C1,"inconclusive: 31.6 µM [activator, single point]"
20,Cn1cnnc1SCC(=O)NNC(=O)c1ccc(Cl)cc1,"inconclusive: 11.2 µM [activator, single point]"
21,CSc1ccccc1-c1n[nH]c(=S)o1,"inconclusive: 6.31 µM [activator, partial curve, poor fit]"
22,CN=c1scc(-c2ccc(OC)cc2)n1/N=C(\C)c1cccnc1,active: 5.01 µM
23,CN(C)Cc1c(C(=O)N/N=C/c2ccc(OCc3ccc(F)cc3)cc2)nnn1-c1nonc1N,"inconclusive: 3.16 µM [activator, single point]"

# Molecules from the list above with a cyano group, in the order listed:
row,SMILES,Potency
2,Cc1cc(C)n(/N=C/c2ccco2)c(=O)c1C#N,"inconclusive: 3.98 µM [activator, partial curve, poor fit]"
12,Cc1cccc(NC(=O)c2sc(NC(=O)c3ccco3)c(C#N)c2C)c1C,"inconclusive: 14.1 µM [activator, single point]"
20,CCOC(=O)N1CCC(=C(C#N)C(=O)Nc2cc(OC)ccc2OC)CC1,inactive
